Results are given in words; binding and its absence hold for the method and conditions named. Some results given as binding are weak or reduced against the parent protein; the word gives no strength.

The target of this test is modified EGF protein (EGF-derivative). In words: affinity chromatography on a Protein A column (MabSelect); capture from cell supernatant, washes, elution at low pH.

Take Protein A (from UniProt P38507 37-327): the binding result is reported as “binds”.

These data come from patent US20210188931A1.
